# Tested on: HEK293 cells
# Test: Expression of mutant NEP in transfected HEK293 cells
# Conditions: individual mutant library members transfected in HEK293
row,Molecule,Expression level in HEK293 cells (in words)
1,"NEP^F563L: neprilysin active site mutant, Phe563 to leucine (protein, UniProt P08473 2-750, looked up, variant F563L) Neprilysin: GKSESQMDITDINTPKPKKKQRWTPLEISLSVLVLLLTIIAVTMIALYATYDDGICKSSDCIKSAARLIQNMDATTEPCTDFFKYACGGWLKRNVIPETSSRYGNFDILRDELEVVLKDVLQEPKTEDIVAVQKAKALYRSCINESAIDSRGGEPLLKLLPDIYGWPVATENWEQKYGASWTAEKAIAQLNSKYGKKVLINLFVGTDDKNSVNHVIHIDQPRLGLPSRDYYECTGIYKEACTAYVDFMISVARLIRQEERLPIDENQLALEMNKVMELEKEIANATAKPEDRNDPMLLYNKMTLAQIQNNFSLEINGKPFSWLNFTNEIMSTVNISITNEEDVVVYAPEYLTKLKPILTKYSARDLQNLMSWRFIMDLVSSLSRTYKESRNAFRKALYGTTSETATWRRCANYVNGNMENAVGRLYVEAAFAGESKHVVEDLIAQIREVFIQTLDDLTWMDAETKKRAEEKALAIKERIGYPDDIVSNDNKLNNEYLELNYKEDEYFENIIQNLKFSQSKQLKKLREKVDKDEWISGAAVVNAFYSSGRNQIVFPAGILQPPLFSAQQSNSLNYGGIGMVIGHEITHGFDDNGRNFNKDGDLVDWWTQQSASNFKEQSQCMVYQYGNFSWDLAGGQHLNGINTLGENIADNGGLGQAYRAYQNYIKKNGEEKLLPGLDLNHKQLFFLNFAQVWCGTYRPEYAVNSIKTDVHSPGNFRIIGTLQNSAEFSEAFHCRKNSYMNPEKKCRVW",expressed at levels near to that of wild-type NEP
2,"NEP^F563M: neprilysin active site mutant, Phe563 to methionine (protein, UniProt P08473 2-750, looked up, variant F563M) Neprilysin: GKSESQMDITDINTPKPKKKQRWTPLEISLSVLVLLLTIIAVTMIALYATYDDGICKSSDCIKSAARLIQNMDATTEPCTDFFKYACGGWLKRNVIPETSSRYGNFDILRDELEVVLKDVLQEPKTEDIVAVQKAKALYRSCINESAIDSRGGEPLLKLLPDIYGWPVATENWEQKYGASWTAEKAIAQLNSKYGKKVLINLFVGTDDKNSVNHVIHIDQPRLGLPSRDYYECTGIYKEACTAYVDFMISVARLIRQEERLPIDENQLALEMNKVMELEKEIANATAKPEDRNDPMLLYNKMTLAQIQNNFSLEINGKPFSWLNFTNEIMSTVNISITNEEDVVVYAPEYLTKLKPILTKYSARDLQNLMSWRFIMDLVSSLSRTYKESRNAFRKALYGTTSETATWRRCANYVNGNMENAVGRLYVEAAFAGESKHVVEDLIAQIREVFIQTLDDLTWMDAETKKRAEEKALAIKERIGYPDDIVSNDNKLNNEYLELNYKEDEYFENIIQNLKFSQSKQLKKLREKVDKDEWISGAAVVNAFYSSGRNQIVFPAGILQPPMFSAQQSNSLNYGGIGMVIGHEITHGFDDNGRNFNKDGDLVDWWTQQSASNFKEQSQCMVYQYGNFSWDLAGGQHLNGINTLGENIADNGGLGQAYRAYQNYIKKNGEEKLLPGLDLNHKQLFFLNFAQVWCGTYRPEYAVNSIKTDVHSPGNFRIIGTLQNSAEFSEAFHCRKNSYMNPEKKCRVW",expressed at levels near to that of wild-type NEP
3,"NEP^F563V: neprilysin active site mutant, Phe563 to valine (protein, UniProt P08473 2-750, looked up, variant F563V) Neprilysin: GKSESQMDITDINTPKPKKKQRWTPLEISLSVLVLLLTIIAVTMIALYATYDDGICKSSDCIKSAARLIQNMDATTEPCTDFFKYACGGWLKRNVIPETSSRYGNFDILRDELEVVLKDVLQEPKTEDIVAVQKAKALYRSCINESAIDSRGGEPLLKLLPDIYGWPVATENWEQKYGASWTAEKAIAQLNSKYGKKVLINLFVGTDDKNSVNHVIHIDQPRLGLPSRDYYECTGIYKEACTAYVDFMISVARLIRQEERLPIDENQLALEMNKVMELEKEIANATAKPEDRNDPMLLYNKMTLAQIQNNFSLEINGKPFSWLNFTNEIMSTVNISITNEEDVVVYAPEYLTKLKPILTKYSARDLQNLMSWRFIMDLVSSLSRTYKESRNAFRKALYGTTSETATWRRCANYVNGNMENAVGRLYVEAAFAGESKHVVEDLIAQIREVFIQTLDDLTWMDAETKKRAEEKALAIKERIGYPDDIVSNDNKLNNEYLELNYKEDEYFENIIQNLKFSQSKQLKKLREKVDKDEWISGAAVVNAFYSSGRNQIVFPAGILQPPVFSAQQSNSLNYGGIGMVIGHEITHGFDDNGRNFNKDGDLVDWWTQQSASNFKEQSQCMVYQYGNFSWDLAGGQHLNGINTLGENIADNGGLGQAYRAYQNYIKKNGEEKLLPGLDLNHKQLFFLNFAQVWCGTYRPEYAVNSIKTDVHSPGNFRIIGTLQNSAEFSEAFHCRKNSYMNPEKKCRVW",expressed at levels near to that of wild-type NEP
4,"NEP^F563I: neprilysin active site mutant, Phe563 to isoleucine (protein, UniProt P08473 2-750, looked up, variant F563I) Neprilysin: GKSESQMDITDINTPKPKKKQRWTPLEISLSVLVLLLTIIAVTMIALYATYDDGICKSSDCIKSAARLIQNMDATTEPCTDFFKYACGGWLKRNVIPETSSRYGNFDILRDELEVVLKDVLQEPKTEDIVAVQKAKALYRSCINESAIDSRGGEPLLKLLPDIYGWPVATENWEQKYGASWTAEKAIAQLNSKYGKKVLINLFVGTDDKNSVNHVIHIDQPRLGLPSRDYYECTGIYKEACTAYVDFMISVARLIRQEERLPIDENQLALEMNKVMELEKEIANATAKPEDRNDPMLLYNKMTLAQIQNNFSLEINGKPFSWLNFTNEIMSTVNISITNEEDVVVYAPEYLTKLKPILTKYSARDLQNLMSWRFIMDLVSSLSRTYKESRNAFRKALYGTTSETATWRRCANYVNGNMENAVGRLYVEAAFAGESKHVVEDLIAQIREVFIQTLDDLTWMDAETKKRAEEKALAIKERIGYPDDIVSNDNKLNNEYLELNYKEDEYFENIIQNLKFSQSKQLKKLREKVDKDEWISGAAVVNAFYSSGRNQIVFPAGILQPPIFSAQQSNSLNYGGIGMVIGHEITHGFDDNGRNFNKDGDLVDWWTQQSASNFKEQSQCMVYQYGNFSWDLAGGQHLNGINTLGENIADNGGLGQAYRAYQNYIKKNGEEKLLPGLDLNHKQLFFLNFAQVWCGTYRPEYAVNSIKTDVHSPGNFRIIGTLQNSAEFSEAFHCRKNSYMNPEKKCRVW",expressed at levels near to that of wild-type NEP

# Source: article PMC3285688, “Active Site Mutations Change the Cleavage Specificity of Neprilysin” (PLoS ONE, 2012)
